Measured values from the supplement of paper PMC12067093, “Discovery and optimisation of a covalent ligand for TRIM25 and its application to targeted protein ubiquitination” (Chemical Science, 2025).
This is one part of the list.

Sequences of proteins named here, by UniProt entry; tags and fusion partners are left off. A change or cut given only in a name is not applied to a line headed by its entry.
UniProt O00584, whole entry, looked up: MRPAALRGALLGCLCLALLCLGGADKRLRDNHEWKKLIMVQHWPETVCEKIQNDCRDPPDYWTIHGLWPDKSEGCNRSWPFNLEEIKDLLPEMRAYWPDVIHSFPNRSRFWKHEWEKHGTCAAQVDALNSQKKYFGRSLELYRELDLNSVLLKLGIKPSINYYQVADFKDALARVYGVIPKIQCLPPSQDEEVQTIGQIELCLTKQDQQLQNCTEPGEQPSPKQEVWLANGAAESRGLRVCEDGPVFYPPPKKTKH
UniProt Q8WZ73: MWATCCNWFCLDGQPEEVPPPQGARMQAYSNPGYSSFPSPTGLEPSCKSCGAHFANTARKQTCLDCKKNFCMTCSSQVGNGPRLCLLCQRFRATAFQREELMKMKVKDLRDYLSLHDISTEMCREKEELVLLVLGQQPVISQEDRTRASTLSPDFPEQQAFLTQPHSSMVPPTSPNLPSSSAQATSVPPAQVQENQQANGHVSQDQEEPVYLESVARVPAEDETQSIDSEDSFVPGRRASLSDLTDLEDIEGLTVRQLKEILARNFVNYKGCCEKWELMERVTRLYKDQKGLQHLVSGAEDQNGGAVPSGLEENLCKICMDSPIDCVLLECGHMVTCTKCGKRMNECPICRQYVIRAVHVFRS
UniProt O75792: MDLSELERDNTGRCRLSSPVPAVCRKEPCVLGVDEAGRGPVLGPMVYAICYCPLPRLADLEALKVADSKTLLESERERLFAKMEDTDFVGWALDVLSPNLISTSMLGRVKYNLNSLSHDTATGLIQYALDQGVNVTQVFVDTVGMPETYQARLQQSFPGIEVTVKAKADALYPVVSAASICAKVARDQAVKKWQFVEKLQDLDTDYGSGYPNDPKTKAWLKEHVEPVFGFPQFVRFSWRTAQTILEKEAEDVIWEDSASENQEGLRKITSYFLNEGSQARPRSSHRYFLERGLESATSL
UniProt Q13671: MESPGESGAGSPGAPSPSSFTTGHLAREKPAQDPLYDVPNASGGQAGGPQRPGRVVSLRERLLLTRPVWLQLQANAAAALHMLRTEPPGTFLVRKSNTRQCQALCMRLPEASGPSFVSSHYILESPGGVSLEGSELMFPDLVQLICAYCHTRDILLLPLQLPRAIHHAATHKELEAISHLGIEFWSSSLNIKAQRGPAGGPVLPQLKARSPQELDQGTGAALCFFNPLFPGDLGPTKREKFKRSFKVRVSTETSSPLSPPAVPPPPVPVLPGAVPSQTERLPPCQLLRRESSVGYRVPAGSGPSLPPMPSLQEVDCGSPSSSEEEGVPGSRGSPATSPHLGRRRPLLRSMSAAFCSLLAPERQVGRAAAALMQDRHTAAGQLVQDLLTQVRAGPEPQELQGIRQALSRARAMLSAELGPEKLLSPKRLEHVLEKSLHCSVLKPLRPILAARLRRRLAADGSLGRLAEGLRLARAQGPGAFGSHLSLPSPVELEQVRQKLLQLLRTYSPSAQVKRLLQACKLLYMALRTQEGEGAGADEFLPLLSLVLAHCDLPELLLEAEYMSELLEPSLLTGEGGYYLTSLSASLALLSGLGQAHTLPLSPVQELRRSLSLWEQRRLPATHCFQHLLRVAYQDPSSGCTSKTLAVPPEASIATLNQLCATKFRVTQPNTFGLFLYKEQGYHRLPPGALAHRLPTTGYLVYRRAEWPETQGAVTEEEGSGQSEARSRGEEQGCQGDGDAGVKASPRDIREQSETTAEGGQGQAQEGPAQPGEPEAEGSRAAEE
UniProt Q96AA3: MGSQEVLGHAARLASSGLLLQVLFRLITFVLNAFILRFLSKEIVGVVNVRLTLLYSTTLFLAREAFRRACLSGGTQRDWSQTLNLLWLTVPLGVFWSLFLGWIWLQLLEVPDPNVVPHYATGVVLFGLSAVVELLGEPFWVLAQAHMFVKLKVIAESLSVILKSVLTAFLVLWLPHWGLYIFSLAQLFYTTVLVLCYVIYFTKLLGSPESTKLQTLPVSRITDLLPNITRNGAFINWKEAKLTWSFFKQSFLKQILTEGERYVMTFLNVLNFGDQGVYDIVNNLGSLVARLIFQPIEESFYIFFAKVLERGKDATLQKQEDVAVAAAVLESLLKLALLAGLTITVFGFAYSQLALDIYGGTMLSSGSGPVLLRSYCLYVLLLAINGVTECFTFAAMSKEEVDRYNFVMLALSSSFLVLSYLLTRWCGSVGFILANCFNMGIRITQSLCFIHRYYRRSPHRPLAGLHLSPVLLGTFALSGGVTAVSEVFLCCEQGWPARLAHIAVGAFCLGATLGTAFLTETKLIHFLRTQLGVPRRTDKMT
UniProt O43665: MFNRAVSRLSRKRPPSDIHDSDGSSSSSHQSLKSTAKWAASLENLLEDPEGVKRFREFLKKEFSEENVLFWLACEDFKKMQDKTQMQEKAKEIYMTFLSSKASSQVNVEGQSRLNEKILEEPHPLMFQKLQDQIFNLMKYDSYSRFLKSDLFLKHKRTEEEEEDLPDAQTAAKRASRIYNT
UniProt O43566: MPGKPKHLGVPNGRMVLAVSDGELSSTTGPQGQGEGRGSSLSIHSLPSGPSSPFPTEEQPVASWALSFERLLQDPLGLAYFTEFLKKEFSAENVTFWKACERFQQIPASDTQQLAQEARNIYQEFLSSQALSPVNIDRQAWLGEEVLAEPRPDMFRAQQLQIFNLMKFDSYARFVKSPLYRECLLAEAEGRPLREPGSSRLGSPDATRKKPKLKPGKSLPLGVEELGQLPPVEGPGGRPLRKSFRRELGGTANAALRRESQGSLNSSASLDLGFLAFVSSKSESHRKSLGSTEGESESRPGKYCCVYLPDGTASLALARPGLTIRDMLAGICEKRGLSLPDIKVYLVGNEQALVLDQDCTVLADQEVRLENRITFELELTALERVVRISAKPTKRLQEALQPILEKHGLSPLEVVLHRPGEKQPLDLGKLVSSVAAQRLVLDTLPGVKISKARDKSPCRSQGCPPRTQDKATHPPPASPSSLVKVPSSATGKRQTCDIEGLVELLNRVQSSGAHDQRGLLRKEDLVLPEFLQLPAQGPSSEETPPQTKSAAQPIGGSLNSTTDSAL
UniProt P07949, whole entry, looked up: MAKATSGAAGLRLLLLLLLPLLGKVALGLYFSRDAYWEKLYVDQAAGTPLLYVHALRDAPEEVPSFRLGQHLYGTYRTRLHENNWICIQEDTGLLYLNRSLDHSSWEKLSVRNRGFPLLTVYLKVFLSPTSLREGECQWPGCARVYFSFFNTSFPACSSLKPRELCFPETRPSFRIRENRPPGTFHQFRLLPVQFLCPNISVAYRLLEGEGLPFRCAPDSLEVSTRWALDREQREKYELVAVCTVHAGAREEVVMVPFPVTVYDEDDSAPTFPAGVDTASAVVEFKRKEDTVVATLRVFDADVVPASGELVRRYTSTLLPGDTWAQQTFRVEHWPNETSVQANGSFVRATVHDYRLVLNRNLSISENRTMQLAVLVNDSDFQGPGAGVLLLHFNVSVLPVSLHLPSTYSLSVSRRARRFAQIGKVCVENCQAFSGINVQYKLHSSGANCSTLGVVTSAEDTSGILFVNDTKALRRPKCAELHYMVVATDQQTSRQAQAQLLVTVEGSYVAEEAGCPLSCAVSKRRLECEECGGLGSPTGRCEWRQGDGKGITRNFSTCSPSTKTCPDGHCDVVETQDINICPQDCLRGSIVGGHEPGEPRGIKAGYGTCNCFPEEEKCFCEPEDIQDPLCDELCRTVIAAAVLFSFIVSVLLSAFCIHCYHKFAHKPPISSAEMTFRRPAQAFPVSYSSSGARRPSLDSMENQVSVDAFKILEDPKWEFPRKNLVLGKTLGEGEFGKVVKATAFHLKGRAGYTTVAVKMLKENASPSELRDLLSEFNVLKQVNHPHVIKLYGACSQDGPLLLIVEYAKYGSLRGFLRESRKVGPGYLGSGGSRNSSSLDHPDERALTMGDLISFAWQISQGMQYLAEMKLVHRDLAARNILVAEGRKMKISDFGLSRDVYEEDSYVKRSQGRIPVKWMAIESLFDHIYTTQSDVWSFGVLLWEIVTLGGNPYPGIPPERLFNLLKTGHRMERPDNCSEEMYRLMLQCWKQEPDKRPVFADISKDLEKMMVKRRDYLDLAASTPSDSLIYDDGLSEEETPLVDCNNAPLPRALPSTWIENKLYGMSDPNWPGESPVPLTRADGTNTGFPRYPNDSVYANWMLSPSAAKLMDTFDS
UniProt P35250, whole entry, looked up: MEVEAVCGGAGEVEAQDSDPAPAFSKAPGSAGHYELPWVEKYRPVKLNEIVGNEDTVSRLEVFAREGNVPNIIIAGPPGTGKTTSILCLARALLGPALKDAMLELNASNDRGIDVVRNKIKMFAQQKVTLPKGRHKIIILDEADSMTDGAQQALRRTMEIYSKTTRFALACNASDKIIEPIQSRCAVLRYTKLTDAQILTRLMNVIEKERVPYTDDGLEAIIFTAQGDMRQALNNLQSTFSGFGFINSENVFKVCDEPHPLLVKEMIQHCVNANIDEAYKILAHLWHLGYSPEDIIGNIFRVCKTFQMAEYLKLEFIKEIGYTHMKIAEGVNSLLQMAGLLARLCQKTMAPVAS
UniProt Q6ZS11: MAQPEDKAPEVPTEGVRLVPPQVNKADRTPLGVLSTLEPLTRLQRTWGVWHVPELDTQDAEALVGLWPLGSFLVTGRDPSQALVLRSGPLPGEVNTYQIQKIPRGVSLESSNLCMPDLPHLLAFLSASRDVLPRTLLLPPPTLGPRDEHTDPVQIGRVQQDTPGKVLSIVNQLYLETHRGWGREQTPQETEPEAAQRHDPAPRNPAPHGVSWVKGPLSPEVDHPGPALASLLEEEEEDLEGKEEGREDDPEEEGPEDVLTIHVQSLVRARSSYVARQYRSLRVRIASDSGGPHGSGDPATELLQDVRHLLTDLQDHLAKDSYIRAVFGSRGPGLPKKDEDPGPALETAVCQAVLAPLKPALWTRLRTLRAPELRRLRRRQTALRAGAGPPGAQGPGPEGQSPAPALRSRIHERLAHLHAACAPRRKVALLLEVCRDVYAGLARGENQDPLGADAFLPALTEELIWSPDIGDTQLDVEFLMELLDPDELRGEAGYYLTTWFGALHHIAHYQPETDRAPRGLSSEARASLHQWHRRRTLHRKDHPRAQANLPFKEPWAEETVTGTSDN
UniProt P35251: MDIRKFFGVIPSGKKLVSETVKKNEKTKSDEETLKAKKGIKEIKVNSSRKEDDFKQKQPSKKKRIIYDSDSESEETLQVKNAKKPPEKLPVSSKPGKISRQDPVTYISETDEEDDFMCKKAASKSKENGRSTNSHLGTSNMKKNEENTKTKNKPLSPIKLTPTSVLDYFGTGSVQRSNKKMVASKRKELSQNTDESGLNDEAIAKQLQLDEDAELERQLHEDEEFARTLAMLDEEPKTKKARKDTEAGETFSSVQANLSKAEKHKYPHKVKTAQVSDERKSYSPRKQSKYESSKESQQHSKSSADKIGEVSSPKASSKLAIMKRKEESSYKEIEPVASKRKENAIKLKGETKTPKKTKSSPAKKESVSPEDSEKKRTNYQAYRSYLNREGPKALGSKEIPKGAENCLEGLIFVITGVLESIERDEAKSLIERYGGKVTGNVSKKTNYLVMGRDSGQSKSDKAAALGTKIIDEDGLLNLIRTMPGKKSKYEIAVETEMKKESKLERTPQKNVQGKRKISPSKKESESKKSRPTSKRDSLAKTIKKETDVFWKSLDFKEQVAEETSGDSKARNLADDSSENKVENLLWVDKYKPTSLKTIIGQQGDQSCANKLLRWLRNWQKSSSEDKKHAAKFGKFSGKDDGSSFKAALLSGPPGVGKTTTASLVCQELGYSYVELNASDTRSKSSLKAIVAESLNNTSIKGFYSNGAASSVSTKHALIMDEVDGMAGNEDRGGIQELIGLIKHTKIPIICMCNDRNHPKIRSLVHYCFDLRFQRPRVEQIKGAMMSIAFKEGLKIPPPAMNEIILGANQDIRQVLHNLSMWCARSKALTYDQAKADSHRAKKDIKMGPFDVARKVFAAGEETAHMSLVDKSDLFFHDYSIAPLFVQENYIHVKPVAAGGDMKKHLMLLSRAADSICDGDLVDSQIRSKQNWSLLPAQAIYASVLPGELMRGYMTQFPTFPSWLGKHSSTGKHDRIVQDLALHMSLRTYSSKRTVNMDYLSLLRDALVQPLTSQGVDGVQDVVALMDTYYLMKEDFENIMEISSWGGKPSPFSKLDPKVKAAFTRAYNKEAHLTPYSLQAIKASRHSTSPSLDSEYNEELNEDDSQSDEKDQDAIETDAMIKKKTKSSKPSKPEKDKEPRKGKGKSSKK
UniProt P84095: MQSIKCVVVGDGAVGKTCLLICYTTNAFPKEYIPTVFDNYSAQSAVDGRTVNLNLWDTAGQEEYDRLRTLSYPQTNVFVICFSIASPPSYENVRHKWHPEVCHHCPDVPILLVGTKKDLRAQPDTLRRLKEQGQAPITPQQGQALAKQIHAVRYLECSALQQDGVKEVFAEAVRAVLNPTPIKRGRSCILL
UniProt Q9Y508: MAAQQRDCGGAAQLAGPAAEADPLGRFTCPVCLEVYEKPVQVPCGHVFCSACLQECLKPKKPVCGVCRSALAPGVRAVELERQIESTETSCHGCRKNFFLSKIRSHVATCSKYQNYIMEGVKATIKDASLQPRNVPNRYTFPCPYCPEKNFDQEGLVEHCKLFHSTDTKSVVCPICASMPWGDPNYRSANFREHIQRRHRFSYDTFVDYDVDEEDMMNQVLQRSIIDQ

These targets were tested with CC1Cc2ccccc2N1C(=O)C1CCCN(C1)C(=O)CCl (mixture of isomers) [TRIM25 ligand 11 (diastereomer mixture)] (assay: probe-labelled cysteine peptide fold change vs DMSO (competition) (log2 fold change); higher = less target engagement (more negative = stronger competition)). Settings: 10 µM; THP-1; incubation time: 4 h.
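Also: competitive chemoproteomic profiling in live THP-1 cells with an iodoacetamide desthiobiotin (IA-DTB) probe, comparing probe-labelled peptide intensities in compound-treated cells against DMSO-treated controls.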

| Target | probe-labelled cysteine peptide fold change |
| --- | --- |
| REST_Q13127_402_CNLQYHFK (UniProt Q13127) | -0.0852 |
| RNASET2_O00584_241_VCEDGPVFYPPPK (UniProt O00584) | -0.151 |
| RFFL_Q8WZ73_337_ICMDSPIDCVLLECGHMVTCTK (UniProt Q8WZ73) | 0.0419 |
| RNASEH2A_O75792_24_LSSPVPAVCR (UniProt O75792) | -0.0996 |
| RIN1_Q13671_623_RLPATHCFQHLLR (UniProt Q13671) | -0.0596 |
| RIF1_Q5UIP0_731_CAALVATAEENLCCEELSSK (UniProt Q5UIP0) | 0.368 |
| RFT1_Q96AA3_70_ACLSGGTQR (UniProt Q96AA3) | -0.0678 |
| RECQL4_O94761_389_KKGECFGGGGATVTTK (UniProt O94761) | 0.0198 |
| RGS10_O43665_66_EFSEENVLFWLACEDFK (UniProt O43665) | 0.13 |
| RGS14_O43566_183_ECLLAEAEGR (UniProt O43566) | 0.122 |
| RIPOR1_Q6ZS17_196_EYTESMCLLESELEAQLGEFHLR (UniProt Q6ZS17) | 0.0399 |
| RDH13_Q8NBN7_75_CEAAAK (UniProt Q8NBN7) | -0.00151 |
| RIF1_Q5UIP0_2274_CLISEMAK (UniProt Q5UIP0) | 0.00652 |
| RNF138_Q8WVD3_192_LLDHCNSNHLFQIVPVTCPICVSLPWGDPSQITR (UniProt Q8WVD3) | -0.215 |
| REL_Q04864-2_304_LCQDHVNFPERPRPGLLGSIGEGR (UniProt Q04864) | 0.119 |
| RIOK3_O14730_287_VIPTECAIK (UniProt O14730) | -0.0379 |
| RET_P07949_987_LMLQCWK (UniProt P07949) | -0.0567 |
| RIF1_Q5UIP0_2450_LSCMANSVIK (UniProt Q5UIP0) | -0.0856 |

| Target | probe-labelled cysteine peptide fold change |
| --- | --- |
| RECQL_P46063_414_ADCILYYGFGDIFR (UniProt P46063) | 0.191 |
| RFC3_P40938_164+165_LILCCNSTSK (UniProt P40938) | -0.0991 |
| RET_P07949_585_TCPDGHCDVVETQDINICPQDCLR (UniProt P07949) | 0.173 |
| RGS19_P49795_123_TEYSEENMLFWLACEELK (UniProt P49795) | 0.234 |
| RLF_Q13129_453_CELLLALK (UniProt Q13129) | 0.116 |
| RFC2_P35250_171_FALACNASDK (UniProt P35250) | 0.0743 |
| RIPOR1_Q6ZS17_1191_QSLQQCGEEGQSAHR (UniProt Q6ZS17) | 0.156 |
| RIOK3_O14730_171_HDEVVCGR (UniProt O14730) | -0.149 |
| RIOK3_O14730_346_AGIPCPTVVLLKK (UniProt O14730) | -0.187 |
| RMI1_Q9H9A7_366_FSHNPNTTNNFSLTCK (UniProt Q9H9A7) | 0.0381 |
| RFTN1_Q14699_527_GPVQEDKGEQLSPGGLLCGVGVEGEAVQNGPASHSR (UniProt Q14699) | -0.257 |
| RINL_Q6ZS11_421_LAHLHAACAPR (UniProt Q6ZS11) | -0.106 |
| RIF1_Q5UIP0_1865_TVGPCLGDSK (UniProt Q5UIP0) | -0.0622 |
| RFX2_P48378_436_LISLCQCDPILR (UniProt P48378) | -0.0748 |
| RFC1_P35251_607_TIIGQQGDQSCANK (UniProt P35251) | -0.0377 |
| RHOG_P84095_105_WHPEVCHHCPDVPILLVGTK (UniProt P84095) | 0.105 |
| RNF114_Q9Y508_160_NFDQEGLVEHCK (UniProt Q9Y508) | 0.0772 |

Same assay, conditions: 50 µM; THP-1; incubation time: 4 h

| Target | probe-labelled cysteine peptide fold change |
| --- | --- |
| REST_Q13127_402_CNLQYHFK (UniProt Q13127) | -0.061 |
| RNASET2_O00584_241_VCEDGPVFYPPPK (UniProt O00584) | -0.195 |
| RFFL_Q8WZ73_337_ICMDSPIDCVLLECGHMVTCTK (UniProt Q8WZ73) | 0.00122 |
| RNASEH2A_O75792_24_LSSPVPAVCR (UniProt O75792) | -0.0838 |
| RIN1_Q13671_623_RLPATHCFQHLLR (UniProt Q13671) | -0.187 |
| RIF1_Q5UIP0_731_CAALVATAEENLCCEELSSK (UniProt Q5UIP0) | 0.222 |
| RFT1_Q96AA3_70_ACLSGGTQR (UniProt Q96AA3) | -0.15 |
| RECQL4_O94761_389_KKGECFGGGGATVTTK (UniProt O94761) | -0.0239 |
| RGS10_O43665_66_EFSEENVLFWLACEDFK (UniProt O43665) | 0.0517 |
| RGS14_O43566_183_ECLLAEAEGR (UniProt O43566) | 0.152 |
| RIPOR1_Q6ZS17_196_EYTESMCLLESELEAQLGEFHLR (UniProt Q6ZS17) | -0.206 |
| RDH13_Q8NBN7_75_CEAAAK (UniProt Q8NBN7) | 0.0619 |
| RIF1_Q5UIP0_2274_CLISEMAK (UniProt Q5UIP0) | -0.388 |
| RNF138_Q8WVD3_192_LLDHCNSNHLFQIVPVTCPICVSLPWGDPSQITR (UniProt Q8WVD3) | -0.339 |
| REL_Q04864-2_304_LCQDHVNFPERPRPGLLGSIGEGR (UniProt Q04864) | -0.142 |
| RIOK3_O14730_287_VIPTECAIK (UniProt O14730) | -0.0226 |
| RET_P07949_987_LMLQCWK (UniProt P07949) | -0.00958 |
| RIF1_Q5UIP0_2450_LSCMANSVIK (UniProt Q5UIP0) | -0.177 |

| Target | probe-labelled cysteine peptide fold change |
| --- | --- |
| RECQL_P46063_414_ADCILYYGFGDIFR (UniProt P46063) | 0.18 |
| RFC3_P40938_164+165_LILCCNSTSK (UniProt P40938) | 0.221 |
| RET_P07949_585_TCPDGHCDVVETQDINICPQDCLR (UniProt P07949) | -0.0304 |
| RGS19_P49795_123_TEYSEENMLFWLACEELK (UniProt P49795) | 0.187 |
| RLF_Q13129_453_CELLLALK (UniProt Q13129) | 0.0193 |
| RFC2_P35250_171_FALACNASDK (UniProt P35250) | 0.151 |
| RIPOR1_Q6ZS17_1191_QSLQQCGEEGQSAHR (UniProt Q6ZS17) | -0.0527 |
| RIOK3_O14730_171_HDEVVCGR (UniProt O14730) | -0.139 |
| RIOK3_O14730_346_AGIPCPTVVLLKK (UniProt O14730) | -0.0964 |
| RMI1_Q9H9A7_366_FSHNPNTTNNFSLTCK (UniProt Q9H9A7) | -0.288 |
| RFTN1_Q14699_527_GPVQEDKGEQLSPGGLLCGVGVEGEAVQNGPASHSR (UniProt Q14699) | -0.416 |
| RINL_Q6ZS11_421_LAHLHAACAPR (UniProt Q6ZS11) | -0.312 |
| RIF1_Q5UIP0_1865_TVGPCLGDSK (UniProt Q5UIP0) | -0.164 |
| RFX2_P48378_436_LISLCQCDPILR (UniProt P48378) | -0.024 |
| RFC1_P35251_607_TIIGQQGDQSCANK (UniProt P35251) | -0.103 |
| RHOG_P84095_105_WHPEVCHHCPDVPILLVGTK (UniProt P84095) | 0.0932 |
| RNF114_Q9Y508_160_NFDQEGLVEHCK (UniProt Q9Y508) | 0.0072 |
